Results published in article doi:10.1101/2025.11.17.688803.
Results are given in words; binding and its absence hold for the method and conditions named. Binding seen in cells or lysates may run through a third protein. Tags and fused reporters may be left off the sequences shown.

Target: T1, HA-tagged TAK1 (transforming growth factor-beta-activated kinase 1), wild type (UniProt O43318)
T1 sequence: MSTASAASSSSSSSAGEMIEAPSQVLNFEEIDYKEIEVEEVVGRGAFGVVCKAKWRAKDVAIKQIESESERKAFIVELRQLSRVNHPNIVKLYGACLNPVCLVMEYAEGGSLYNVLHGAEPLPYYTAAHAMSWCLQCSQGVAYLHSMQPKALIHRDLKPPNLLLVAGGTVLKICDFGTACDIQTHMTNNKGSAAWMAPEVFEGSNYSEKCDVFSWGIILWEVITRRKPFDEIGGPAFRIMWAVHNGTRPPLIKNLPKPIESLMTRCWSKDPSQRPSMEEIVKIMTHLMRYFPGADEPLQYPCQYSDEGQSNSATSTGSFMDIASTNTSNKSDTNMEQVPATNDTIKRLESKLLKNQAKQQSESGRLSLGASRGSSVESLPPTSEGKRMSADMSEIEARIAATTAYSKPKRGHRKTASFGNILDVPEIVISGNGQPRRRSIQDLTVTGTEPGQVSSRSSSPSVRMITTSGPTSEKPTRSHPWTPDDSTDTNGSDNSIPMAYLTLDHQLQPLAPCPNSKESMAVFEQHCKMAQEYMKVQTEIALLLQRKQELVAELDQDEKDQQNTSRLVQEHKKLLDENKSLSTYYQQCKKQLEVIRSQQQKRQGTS
Assay: co-IP

“Myc-LRBA (a.a. 2045-2483) F2406R (mouse) (domain or fragment)” was tested, and the binding was “no binding”.
